The record followed here is PMC12120773, “SIRT4 Promotes Pancreatic Cancer Stemness by Enhancing Histone Lactylation and Epigenetic Reprogramming Stimulated by Calcium Signaling” (Advanced Science, 2025).

Amino acid sequences for entries named in this document (tags omitted).
UniProt P06733, whole entry K358R: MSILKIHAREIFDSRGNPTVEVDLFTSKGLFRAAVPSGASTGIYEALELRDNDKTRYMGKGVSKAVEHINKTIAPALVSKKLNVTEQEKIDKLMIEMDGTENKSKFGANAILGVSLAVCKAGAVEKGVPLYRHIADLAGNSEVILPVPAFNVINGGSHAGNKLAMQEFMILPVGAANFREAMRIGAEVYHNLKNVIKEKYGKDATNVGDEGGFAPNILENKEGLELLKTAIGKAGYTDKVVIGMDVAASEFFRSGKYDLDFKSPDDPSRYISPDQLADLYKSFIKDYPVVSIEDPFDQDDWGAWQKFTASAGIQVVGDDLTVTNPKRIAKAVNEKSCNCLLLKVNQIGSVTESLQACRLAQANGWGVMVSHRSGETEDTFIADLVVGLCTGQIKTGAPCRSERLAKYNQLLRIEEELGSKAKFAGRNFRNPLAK
UniProt P06733, whole entry K358Q: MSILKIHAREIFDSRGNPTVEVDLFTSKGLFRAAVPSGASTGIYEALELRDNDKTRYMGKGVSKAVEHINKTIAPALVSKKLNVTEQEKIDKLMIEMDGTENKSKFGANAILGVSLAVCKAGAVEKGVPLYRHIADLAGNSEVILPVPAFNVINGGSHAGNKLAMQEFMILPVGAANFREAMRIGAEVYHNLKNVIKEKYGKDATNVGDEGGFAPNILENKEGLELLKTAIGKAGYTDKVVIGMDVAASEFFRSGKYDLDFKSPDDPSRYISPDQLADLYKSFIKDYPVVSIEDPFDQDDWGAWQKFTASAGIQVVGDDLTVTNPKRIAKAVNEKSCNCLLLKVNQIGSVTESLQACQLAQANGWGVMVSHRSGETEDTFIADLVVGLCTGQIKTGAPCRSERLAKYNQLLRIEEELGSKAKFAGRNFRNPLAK

Construct, isoform or probe ends are uncertain for at least one entry. For some of these results: The comparison behind a weaker result is the experiment's own reference, which may not be listed here. For some of these results: At least one verdict was read from the data and is not stated in words by the source.

For series [1], the target named is ENO1 K358R (deacetylated mimetic) (UniProt P06733). The series is described as follows: competition pull-down (streptavidin, western blot). The note with it: with 2-PG, which competes with SNORA25; recombinant protein; label: biotin; probe letters rebuilt from the primers and the genome.
Series [2] deals with ENO1 K358Q (acetylated mimetic) (UniProt P06733). Briefly: competition pull-down (streptavidin, western blot). The note with it: with 2-PG, binding unchanged; recombinant protein; label: biotin; probe letters rebuilt from the primers and the genome. A general note: A western blot detects proteins with antibodies after separation by electrophoresis.
Series [3] has as its target ENO1 K358R (deacetylated mimetic) (UniProt P06733). Briefly: pull-down (streptavidin, western blot). The following applies: without 2-PG; recombinant protein; label: biotin; probe letters rebuilt from the primers and the genome.
Series [4] concerns the target ENO1 K358Q (acetylated mimetic) (UniProt P06733). Briefly: pull-down (streptavidin, western blot). The following applies: without 2-PG; recombinant protein; label: biotin; probe letters rebuilt from the primers and the genome.

Consider “GGGAGAGGGUCAUUUCAAAGAGGGCUUAUGAGGCUGUGAAACCCAGAGCUCUUAACGCUGUGACCAAAGAUGGAAGUUCUCUAUAGGAAGCCAUAGCACUCCUAAUGUUUGGUGCUAUGUUUUCCUGAGGAGAUAUAAAA [SNORA25]”, for which the binding result is recorded as “binds more weakly” in series [1], “binds” in series [2], “binds” in series [3] and “binds” in series [4].
